± gives the uncertainty stated by the source. The uncertainty is large for many entries.

A short description of this data set: self-splicing fitness, log relative to wild type (ln ratio); higher = more splicing; Tetrahymena group I intron in knt gene, E. coli kanamycin selection, DiMSum; sequences stand for … in CUCUCU…GGAGGGAAAAGUUAUCAGGCAUGCACCUGGUAGCUAGUCUUUAAACCAAUAGAUUGCAUCGGUUUAAAAGGCAAGACCGUCAAAUUGCGGGAAAGGGGUCAACAGCCGUUCAGUACCAAGUCUCAGGGGAAACUUUGAGAUGGCCUUGCAAAGGGUAUGGUAAUAAGCUGACGGACAUGGUCCUAACCACGCAGCCAAGUCCUAAGUCAACAGAUCUUCUGUUGAUAUGGAUGCAGUUCACAGACUAAAUGUCGGUCGGGGAAGAUGUAUUCUUCUCAUAAGAUAUAGUCGGACCUCUCCUUAAUGGGAGCUAGCGGAUGAAGUGAUGCAACACUGGAGCCGCUGGGAACUAAUUUGUAUGCGAAAGUAUAUUGAUUAGUUUUGGAGUACUCGUGGUCG
An outline of the steps:
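Fitness was computed with DiMSum as the error-weighted combination of replicate fold changes, kanamycin versus none, each normalised to wild type. The library randomised all eight intron nucleotides of the P1ex region, with the intron placed in the knt kanamycin-resistance gene on pET-22b(+) in E. coli BL21(DE3). Six replicate transformations were grown overnight at 37°C or 30°C on LB agar with or without 25 μg/mL kanamycin, plus 100 μg/mL carbenicillin, 50 μM IPTG and 0.2% rhamnose. Pooled colonies were amplicon-sequenced on an Illumina HiSeq 2500.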

In the case of AGUGAGCAAUAUUACGCCCU, the “self-splicing fitness (ln)” value (30 °C) came out at 0.511 ± 0.55 and the “self-splicing fitness (ln)” value (37 °C) was 0.635 ± 0.61.
With CGUUAGCAAUAUUACGCCUA, under “30 °C”, the “self-splicing fitness (ln)” value was -1.52 ± 1.2.
On to AGGGAGCAAUAUUACGCACA, for which the “self-splicing fitness (ln)” value (30 °C) is -2.15 ± 0.56 and the “self-splicing fitness (ln)” value (37 °C) was -0.47 ± 0.67.
Consider CUGGAGCAAUAUUACGCGCU, for which the “self-splicing fitness (ln)” value (37 °C) is -2.47 ± 0.75.
Take ACUGAGCAAUAUUACGCCAG: the “self-splicing fitness (ln)” value was -2.93 ± 0.49 (30 °C) and -2.78 ± 0.47 (37 °C).
Turning to CAUUAGCAAUAUUACGAGGA, the “self-splicing fitness (ln)” value (37 °C) was -2.55 ± 0.54.
Consider UGGUAGCAAUAUUACGAAAG, for which the “self-splicing fitness (ln)” value is -3.06 ± 0.26 (30 °C) and -3.47 ± 0.73 (37 °C).
In the case of ACCGAGCAAUAUUACGCCAG, the “self-splicing fitness (ln)” value (30 °C) is -3.57 ± 0.53.
Still for that read-out and setting: the value for GGUAAGCAAUAUUACGAUCC was 0.285 ± 1.1.
With GUAAAGCAAUAUUACGCACG, the “self-splicing fitness (ln)” value by setting is: (30 °C) -0.557 ± 0.067; (37 °C) -0.242 ± 0.093.
Turning to UGGGAGCAAUAUUACGAUUG, the “self-splicing fitness (ln)” value (30 °C) was -3.51 ± 0.53.
The same measure, in the same setting: as for AUGGAGCAAUAUUACGAAGA, the figure is -2.89 ± 0.58; as for UGAUAGCAAUAUUACGCCAC, -2.94 ± 0.64.
For the sequence CCUCAGCAAUAUUACGAAGA, the “self-splicing fitness (ln)” value (30 °C) was -3.71 ± 0.3 and the “self-splicing fitness (ln)” value (37 °C) is -2.31 ± 0.25.
With AUCGAGCAAUAUUACGGUGA, the “self-splicing fitness (ln)” value reads like this: (30 °C) -2.39 ± 0.12; (37 °C) -2.25 ± 0.15.
Turning to GACGAGCAAUAUUACGAGUU, the “self-splicing fitness (ln)” value (30 °C) was -3.06 ± 0.34 and the “self-splicing fitness (ln)” value (37 °C) was -2.28 ± 0.79.
Consider GUAUAGCAAUAUUACGGAGA, for which the “self-splicing fitness (ln)” value (30 °C) was -3.21 ± 1.1.
Consider GAGGAGCAAUAUUACGCAAG, for which the “self-splicing fitness (ln)” value runs as follows: (30 °C) -2.82 ± 0.63; (37 °C) -1.29 ± 0.87.
On to CUAUAGCAAUAUUACGGCGA, for which, where the note is “30 °C”, the “self-splicing fitness (ln)” value is -2.34 ± 0.85.
For the sequence GAGUAGCAAUAUUACGGGGU, the “self-splicing fitness (ln)” value (30 °C) was -2.23 ± 0.61 and the “self-splicing fitness (ln)” value (37 °C) is -2.5 ± 0.78.
For the sequence UAGUAGCAAUAUUACGUUGC, the “self-splicing fitness (ln)” value (30 °C) was -1.02 ± 0.51.
In the case of CCGUAGCAAUAUUACGGUAC, where the note is “37 °C”, the “self-splicing fitness (ln)” value is -3.52 ± 0.51.
As to CAUUAGCAAUAUUACGCAAA, the “self-splicing fitness (ln)” value (30 °C) was -3.07 ± 0.53.
AUUUAGCAAUAUUACGUUGC: the “self-splicing fitness (ln)” value (37 °C) is -2.88 ± 1.1.
Consider UCCAAGCAAUAUUACGAUCC, for which the “self-splicing fitness (ln)” value (30 °C) was -2.5 ± 0.5.
With UUGUAGCAAUAUUACGGUCC, the “self-splicing fitness (ln)” value (37 °C) was -0.83 ± 0.55.
As for UCACAGCAAUAUUACGGCCG, the “self-splicing fitness (ln)” value was -1.24 ± 0.1 (30 °C) and -0.536 ± 0.15 (37 °C).
In the same order, the values of GCAGAGCAAUAUUACGAUAG are -3.82 ± 1 and -2.81 ± 0.75.
In the case of UUUGAGCAAUAUUACGGUAC, the “self-splicing fitness (ln)” value (37 °C) was -2.44 ± 0.78.
Still for that read-out and setting: the value for CUGCAGCAAUAUUACGUCAC was -2.28 ± 0.58.
With CGGCAGCAAUAUUACGUUCG, the “self-splicing fitness (ln)” value (30 °C) is -5.03 ± 0.51.
In the case of GGGGAGCAAUAUUACGUUGC, for the setting “30 °C”, the “self-splicing fitness (ln)” value is -1.86 ± 0.71.
For the sequence CUUGAGCAAUAUUACGUCGA, the “self-splicing fitness (ln)” value (37 °C) was -2.45 ± 0.63.
Turning to GCGGAGCAAUAUUACGUGGG, the “self-splicing fitness (ln)” value (30 °C) is -2.01 ± 0.3 and the “self-splicing fitness (ln)” value (37 °C) was -2.25 ± 0.34.
In the same order, the values of GCAGAGCAAUAUUACGCGGC are -3.8 ± 0.77 and -2.58 ± 0.64.
With GCGAAGCAAUAUUACGAGCU, the “self-splicing fitness (ln)” value is -2.99 ± 0.79 (30 °C) and -0.926 ± 0.68 (37 °C).
With GACGAGCAAUAUUACGAGCC, the “self-splicing fitness (ln)” value by setting is: (30 °C) -2.73 ± 0.33; (37 °C) -1.8 ± 0.79.
In the same order, the values of CCAGAGCAAUAUUACGACGA are -2.94 ± 0.25 and -2.34 ± 0.3.
Take CGUAAGCAAUAUUACGAUGU: where the note is “30 °C”, the “self-splicing fitness (ln)” value was -4.59 ± 0.72.
AAGGAGCAAUAUUACGUCUC: the “self-splicing fitness (ln)” value (37 °C) was -1.6 ± 0.6.
Same read-out and setting: the value for UGGAAGCAAUAUUACGAAGU was -2.94 ± 0.53.
UGCGAGCAAUAUUACGUUGC: where the note is “30 °C”, the “self-splicing fitness (ln)” value was -2.85 ± 0.64.
Take UGGCAGCAAUAUUACGCCAU: where the note is “37 °C”, the “self-splicing fitness (ln)” value was -3.3 ± 1.
The same measure, in the same setting: the value for AAUGAGCAAUAUUACGAAUG was -2.88 ± 0.53.
Take UUUAAGCAAUAUUACGGGCC: the “self-splicing fitness (ln)” value (30 °C) is -2.97 ± 0.53.
For AGAGAGCAAUAUUACGACUA, the “self-splicing fitness (ln)” value (37 °C) is -0.808 ± 0.54.
AGAGAGCAAUAUUACGCCCG: the “self-splicing fitness (ln)” value (30 °C) is -2.79 ± 1.2 and the “self-splicing fitness (ln)” value (37 °C) is -0.517 ± 0.87.
In the case of CUACAGCAAUAUUACGGGCC, the “self-splicing fitness (ln)” value (30 °C) is -5.34 ± 1.
On to AUCGAGCAAUAUUACGAAUC, for which the “self-splicing fitness (ln)” value reads like this: (30 °C) -2.84 ± 0.75; (37 °C) -3.41 ± 0.74.
